Results from the supplement of paper PMC11348887.
Structures can show the parent of a compound that is named as a salt. The list shows a part of the results. Most values lie at the level of the controls, where differences are scatter. Where a SMILES comes first, the peptide text is derived from it.

Experiments:
Conditions in all cases: 5 µM; treatment: days 7-14 after plating, readout day 21
[1] = test system: hPSC-derived cortical neurons (WA09); assay: nucleus area z-score vs screen plate; higher = larger nuclei (more mature)
[2] = test system: hPSC-derived cortical neurons (WA09); assay: total neurite length per nucleus (MAP2) z-score; higher = more neurite growth
[3] = test system: hPSC-derived cortical neurons (WA09); assay: nucleus roundness z-score vs screen plate; higher = rounder nuclei (more mature)
[4] = test system: hPSC-derived cortical neurons (WA09); assay: KCl-induced FOS+/EGR-1+ double-positive nuclei fraction z-score (KCl minus unstimulated); higher = stronger activity-induced IEG response

Row | SMILES | nucleus area z-score [1] | total neurite length per nucleus (z-score) [2] | nucleus roundness z-score [3] | KCl-induced FOS+/EGR-1+ double-positive nuclei fraction z-score [4]
1 | CNS(=O)(=O)C[C@H]1CC[C@H](N(C)c2[nH]cnc3nccc2-3)CC1 [Oclacitinib] | 0.0619 | -0.451 | 0.952 | -0.228
2 | COC(=O)[C@H](Cc1ccccc1)NC(=O)[C@@H](N)CC(=O)O [Aspartame] (H-Asp-Phe-OMe) | 0.229 | -0.993 | -0.485 | -1.11
3 | Cc1cc(C(=O)NOCCO)c(Nc2ccc(I)cc2F)n(C)c1=O | -1.17 | 0.336 | -0.045 | -0.0709
4 | Nc1ccn([C@@H]2CS[C@H](CO)O2)c(=O)n1 [Lamivudine] | 1.02 | -0.488 | -0.926 | -0.585
5 | O=C(O)c1cc(=O)c2ccccc2o1 [Chromocarb] | 0.035 | -0.3 | -1.32 | -0.075
6 | COc1ccccc1N1CCN(CCN(C(=O)C2CCCCC2)c2ccccn2)CC1 | 0.0323 | 1.01 | 0.409 | 0.335
7 | CN1CCN(C2=Nc3ccccc3Oc3ccc(Cl)cc32)CC1 [Loxapine Succinate] | 0.272 | 0.908 | -0.343 | -0.713
8 | NCCC(O)(P(=O)(O)O)P(=O)(O)O [Pamidronate Disodium] | 0.154 | 0.34 | 0.19 | 1.9
9 | NCC(=O)CCC(=O)O [5-Aminolevulinic acid HCl] | -0.298 | 1.5 | -0.065 | 0.389
10 | CC(=O)Nc1ccccc1 [Acetanilide] | 0.636 | 0.0561 | 0.547 | 0.028
11 | NCCS(=O)(=O)O [Taurine] | 0.215 | 0.639 | 0.309 | -0.0515
12 | CC1=C(C(=O)O)N2C(=O)[C@@H](NC(=O)[C@H](N)c3ccccc3)[C@H]2SC1 [Cephalexin] | -1.61 | -0.551 | 1.56 | -0.756
13 | COc1ccc(-c2nc3cc(C4=NNC(=O)CC4C)ccc3[nH]2)cc1 (centres undefined) [Pimobendan] | 0.656 | 1.35 | 0.358 | 1.28
14 | CC(=O)/N=c1/sc(S(N)(=O)=O)nn1C [Methazolamide] | -0.682 | 0.941 | 1.06 | -0.145
15 | Cc1ccc(Nc2c(F)cccc2Cl)c(CC(=O)O)c1 [Lumiracoxib] | 1.65 | -0.069 | 1.55 | 1.67
16 | CC1(C)CC(=O)c2c(C(F)(F)F)nn(-c3ccc(C(N)=O)c(N[C@H]4CC[C@H](OC(=O)CN)CC4)c3)c2C1 | -9.75 | -4.84 | -3.3 | -1.66
17 | O=c1[nH]c(=O)c2ccccc2o1 [Carsalam] | -0.293 | -0.4 | -0.00127 | 0.0787
18 | Nc1ncc(-c2ccnc(Nc3ccncc3)n2)c(CC2CC2)n1 | -5.92 | -1.51 | -2.58 | 0.748
19 | C[C@H](Cc1cc2c(c(C(N)=O)c1)N(CCCO)CC2)NCCOc1ccccc1OCC(F)(F)F [Silodosin] | -0.0875 | -0.178 | -0.602 | -1.62
20 | Cc1cc(-c2ccc(CC(=O)Nc3ccc(-c4cccnc4)cc3)cc2)ccn1 | -0.518 | 0.00131 | -0.945 | 0.569
21 | Nc1nc(OCc2cc(Br)cs2)c2[nH]cnc2n1 [Lomeguatrib] | 2.87 | -0.195 | -0.688 | -0.0471

Compounds shown so far containing nitrogen in an aromatic ring:
Row | SMILES | nucleus area z-score [1] | total neurite length per nucleus (z-score) [2] | nucleus roundness z-score [3] | KCl-induced FOS+/EGR-1+ double-positive nuclei fraction z-score [4]
1 | CNS(=O)(=O)C[C@H]1CC[C@H](N(C)c2[nH]cnc3nccc2-3)CC1 [Oclacitinib] | 0.0619 | -0.451 | 0.952 | -0.228
3 | Cc1cc(C(=O)NOCCO)c(Nc2ccc(I)cc2F)n(C)c1=O | -1.17 | 0.336 | -0.045 | -0.0709
4 | Nc1ccn([C@@H]2CS[C@H](CO)O2)c(=O)n1 [Lamivudine] | 1.02 | -0.488 | -0.926 | -0.585
6 | COc1ccccc1N1CCN(CCN(C(=O)C2CCCCC2)c2ccccn2)CC1 | 0.0323 | 1.01 | 0.409 | 0.335
13 | COc1ccc(-c2nc3cc(C4=NNC(=O)CC4C)ccc3[nH]2)cc1 (centres undefined) [Pimobendan] | 0.656 | 1.35 | 0.358 | 1.28
14 | CC(=O)/N=c1/sc(S(N)(=O)=O)nn1C [Methazolamide] | -0.682 | 0.941 | 1.06 | -0.145
16 | CC1(C)CC(=O)c2c(C(F)(F)F)nn(-c3ccc(C(N)=O)c(N[C@H]4CC[C@H](OC(=O)CN)CC4)c3)c2C1 | -9.75 | -4.84 | -3.3 | -1.66
17 | O=c1[nH]c(=O)c2ccccc2o1 [Carsalam] | -0.293 | -0.4 | -0.00127 | 0.0787
18 | Nc1ncc(-c2ccnc(Nc3ccncc3)n2)c(CC2CC2)n1 | -5.92 | -1.51 | -2.58 | 0.748
20 | Cc1cc(-c2ccc(CC(=O)Nc3ccc(-c4cccnc4)cc3)cc2)ccn1 | -0.518 | 0.00131 | -0.945 | 0.569
21 | Nc1nc(OCc2cc(Br)cs2)c2[nH]cnc2n1 [Lomeguatrib] | 2.87 | -0.195 | -0.688 | -0.0471

Later entries

Row | SMILES | nucleus area z-score [1] | total neurite length per nucleus (z-score) [2] | nucleus roundness z-score [3] | KCl-induced FOS+/EGR-1+ double-positive nuclei fraction z-score [4]
22 | CCN(CCO)CCCC(C)Nc1ccnc2cc(Cl)ccc12 (centres undefined) [Hydroxychloroquine Sulfate] | -0.503 | -0.723 | 0.588 | -0.13
23 | Cc1ccc(Cl)c(Nc2ccccc2C(=O)O)c1Cl [Meclofenamate Sodium] | 1.37 | 0.0348 | -1.85 | 0.00604
24 | FC(F)c1nc2ccccc2n1-c1nc(N2CCOCC2)nc(N2CCOCC2)n1 | 0.421 | -0.293 | 0.0854 | 0.0471
25 | O=C(NC[C@H]1CN(c2ccc(N3CCOCC3=O)cc2)C(=O)O1)c1ccc(Cl)s1 [Rivaroxaban] | 0.205 | 1.35 | 1.1 | 0.532
26 | CCCCC[C@H](O)/C=C/[C@H]1[C@H](O)CC(=O)[C@@H]1CCCCCCC(=O)O [Alprostadil] | 0.0718 | -0.345 | 0.0667 | 0.435
27 | COc1cc(/C=C/C(=O)CC(=O)/C=C/c2ccc(O)c(OC)c2)ccc1O [Curcumin] | -0.307 | 0.249 | 0.46 | 0.71
28 | NS(=O)(=O)Cc1noc2ccccc12 [Zonisamide] | 0.346 | 0.585 | 0.0538 | 0.576
29 | Clc1ccc2nsnc2c1NC1=NCCN1 [Tizanidine HCl] | 0.117 | -0.302 | -0.893 | -0.211
30 | CC(C)(C)c1nc(-c2cccc(NS(=O)(=O)c3c(F)cccc3F)c2F)c(-c2ccnc(N)n2)s1 | 4.29 | -2.13 | -2.7 | -0.39
31 | Cc1ccc(-n2nc(C(C)(C)C)cc2NC(=O)NCc2cc(F)ccc2Oc2ccc3c(cnn3CCO)c2)cc1 [Pexmetinib (ARRY-614)] | -0.308 | 0.713 | 0.623 | -0.524
32 | CCCCc1oc2ccc(NS(C)(=O)=O)cc2c1C(=O)c1ccc(OCCCN(CCCC)CCCC)cc1 [Dronedarone HCl] | -15.1 | -4.71 | -10.3 | -2.07
33 | c1ccc(NCc2ccc(CNc3ccccn3)cc2)nc1 | -1.04 | 0.555 | 0.114 | 0.146
34 | CC(C)(C)NC(=O)[C@H]1CC[C@H]2[C@@H]3CC[C@H]4NC(=O)C=C[C@]4(C)[C@H]3CC[C@]12C [Finasteride] | 0.084 | -0.0128 | -0.0367 | -0.255
35 | Nc1ncnc2c1ncn2[C@@H]1O[C@H](CO)[C@@H](O)[C@H]1O [Adenosine] | 0.0202 | 0.325 | 0.0348 | 0.591
36 | CCOc1ccc2nc(S(N)(=O)=O)sc2c1 [Ethoxzolamide] | 0.178 | 0.475 | 0.126 | -1.02
37 | CC(C)C[C@H](NC(=O)[C@H](Cc1ccccc1)NC(=O)c1cnccn1)B(O)O [Bortezomib (PS-341)] | -6.67 | -3.24 | -4.78 | 1.32
38 | NC(=O)c1ncn([C@@H]2O[C@H](CO)[C@@H](O)[C@H]2O)c1O [Mizoribine] | 0.362 | 0.207 | 0.164 | 0.257
39 | Nc1ccn([C@@H]2O[C@H](CO)[C@@H](O)C2(F)F)c(=O)n1 [Gemcitabine HCl] | -2.88 | -1.13 | -1.19 | -1.79
40 | NC(=O)N/N=C/c1ccc([N+](=O)[O-])o1 [Nitrofural] | 0.126 | 0.262 | -0.133 | -0.166
41 | COc1ccc2c(c1)CCC1C2CCC2(C)C(NCCCCCCN3C(=O)C=CC3=O)CCC12 (centres undefined) | 2.19 | -0.581 | 0.499 | -0.271
42 | CO/N=C(\C(=O)N[C@@H]1C(=O)N2C(C(=O)O)=C(COC(C)=O)CS[C@H]12)c1csc(N)n1 [Cefotaxime sodium] | 1.35 | 1.48 | -0.558 | -0.00495

Arranged by length of the SMILES (descending): part of the list above
Row | SMILES | nucleus area z-score [1] | total neurite length per nucleus (z-score) [2] | nucleus roundness z-score [3] | KCl-induced FOS+/EGR-1+ double-positive nuclei fraction z-score [4]
32 | CCCCc1oc2ccc(NS(C)(=O)=O)cc2c1C(=O)c1ccc(OCCCN(CCCC)CCCC)cc1 [Dronedarone HCl] | -15.1 | -4.71 | -10.3 | -2.07
35 | Nc1ncnc2c1ncn2[C@@H]1O[C@H](CO)[C@@H](O)[C@H]1O [Adenosine] | 0.0202 | 0.325 | 0.0348 | 0.591
22 | CCN(CCO)CCCC(C)Nc1ccnc2cc(Cl)ccc12 (centres undefined) [Hydroxychloroquine Sulfate] | -0.503 | -0.723 | 0.588 | -0.13

The list goes on:

Row | SMILES | nucleus area z-score [1] | total neurite length per nucleus (z-score) [2] | nucleus roundness z-score [3] | KCl-induced FOS+/EGR-1+ double-positive nuclei fraction z-score [4]
43 | NC(=O)CCCSc1nc(N)nc(-c2c(Cl)cc3c4c(cccc24)COC3)n1 | -10.7 | -5.65 | -3.07 | -0.747
44 | COc1ccnc2[nH]cc(C(=O)C(=O)N3CCN(C(=O)c4ccccc4)C[C@H]3C)c12 | 0.659 | 0.136 | 0.121 | 1.09
45 | CN(C)c1cc(NC(=O)CNC(C)(C)C)c(O)c2c1C[C@H]1C[C@H]3[C@H](N(C)C)C(O)=C(C(N)=O)C(=O)[C@@]3(O)C(O)=C1C2=O [Tigecycline] | 0.0522 | 0.295 | 0.562 | 1.55
46 | CCOC(=O)c1c(CSc2ccccc2)n(C)c2cc(Br)c(O)c(CN(C)C)c12 [Arbidol HCl] | 0.543 | -0.101 | -0.837 | -1.41
47 | CC(=O)Oc1ccc(C(c2ccc(OC(C)=O)cc2)c2ccccn2)cc1 [Bisacodyl] | -0.657 | -0.302 | -0.265 | -0.116
48 | CN1CC(=O)NC1=N [Creatinine] | 0.463 | 0.22 | 0.587 | 0.666
49 | CC(C)OC(=O)C(C(=O)OC(C)C)=C1SC=CS1 [Malotilate] | 0.892 | 1.57 | 1.43 | 0.0615
50 | CC[C@@H]1C(=O)N(C)c2cnc(Nc3ccc(C(=O)N[C@H]4CC[C@H](N5CCN(CC6CC6)CC5)CC4)cc3OC)nc2N1C(C)C [Volasertib (BI 6727)] | -4.93 | -2.2 | -5.14 | -2.02
51 | CC(C)(O/N=C(\C(=O)N[C@@H]1C(=O)N2C(C(=O)[O-])=C(C[n+]3ccccc3)CS[C@H]12)c1csc(N)n1)C(=O)O [Ceftazidime Pentahydrate] | 0.767 | 0.364 | 0.398 | 1.48
52 | C[N+](C)(C)CCO.[Cl-] [Choline Chloride] | 0.683 | 0.21 | 0.426 | 1.12
53 | C=C1/C(=C\C=C2/CCC[C@]3(C)[C@@H]([C@H](C)CCCC(C)(C)O)CC[C@@H]23)C[C@@H](O)C[C@@H]1O [Calcitriol] | 1.58 | -0.332 | -0.531 | -0.192
54 | CNC[C@H](O)c1ccc(O)c(O)c1 [Epinephrine Bitartrate] | 1.66 | -0.0822 | -0.376 | 0.246
55 | CCN(CC)CCNC(=O)c1ccc(N)cc1 [Procainamide HCl] | -0.277 | 0.619 | 0.0739 | -0.0244
56 | Cc1nnc(C(=O)NC(C)(C)c2nc(C(=O)NCc3ccc(F)cc3)c(O)c(=O)n2C)o1 [Raltegravir (MK-0518)] | 1.39 | -0.462 | 0.715 | -0.581
57 | O=C(c1ccc(C(=O)N2CCC(N3CCCC3)CC2)c(Nc2ccccc2)c1)N1CCC(N2CCCC2)CC1 | 0.345 | 1.14 | 1.51 | 3.37
58 | COc1cc2c(NC3CCN(CC4CCCCC4)CC3)nc(N3CCCN(C(C)C)CC3)nc2cc1OCCCN1CCCCC1 | -12.6 | -5.02 | -2.13 | -2.79
59 | O=C(c1cccc(Cl)c1F)N1CCN(Cc2cccc(Nc3nccs3)n2)CC1 | 0.873 | 0.0109 | 0.461 | -0.218
60 | Oc1ccc(C2CNCCc3c2cc(O)c(O)c3Cl)cc1 (centres undefined) [Fenoldopam mesylate] | 0.447 | -0.615 | 0.451 | -0.248
61 | CO[C@H]1/C=C/O[C@@]2(C)Oc3c(C)c(O)c4c(O)c(c5c(nc6cc(C)ccn65)c4c3C2=O)NC(=O)/C(C)=C\C=C\[C@H](C)[C@H](O)[C@@H](C)[C@@H](O)[C@@H](C)[C@H](OC(C)=O)[C@@H]1C [Rifaximin] | 0.476 | -0.0711 | -0.181 | 0.662
